Results are given in words; binding and its absence hold for the method and conditions named. In cells and extracts the contact can be indirect. Some results given as binding are weak or reduced against the parent protein; the word gives no strength.
Experiments:
[1] = target: 6×His-luciferase [luciferase: P08659]; experiment: pulldown on native or heat-denatured 6×His-luciferase immobilized on Ni-NTA agarose, GST-DAXX 100 nM, Western blot
[2] = target: 6×His-luciferase [luciferase: P08659]; experiment: pulldown on 6×His-luciferase immobilized on Ni-NTA agarose, Western blot
[3] = target: Flag-nLuc (nucleus-localized luciferase) [luciferase: P08659]; experiment: co-immunoprecipitation from HEK293T lysates with anti-Flag M2 beads, Western blot

Amino acid sequences for entries named in this document (tags omitted). A change or cut given only in a name is not applied to a line headed by its entry.
UniProt Q9UER7: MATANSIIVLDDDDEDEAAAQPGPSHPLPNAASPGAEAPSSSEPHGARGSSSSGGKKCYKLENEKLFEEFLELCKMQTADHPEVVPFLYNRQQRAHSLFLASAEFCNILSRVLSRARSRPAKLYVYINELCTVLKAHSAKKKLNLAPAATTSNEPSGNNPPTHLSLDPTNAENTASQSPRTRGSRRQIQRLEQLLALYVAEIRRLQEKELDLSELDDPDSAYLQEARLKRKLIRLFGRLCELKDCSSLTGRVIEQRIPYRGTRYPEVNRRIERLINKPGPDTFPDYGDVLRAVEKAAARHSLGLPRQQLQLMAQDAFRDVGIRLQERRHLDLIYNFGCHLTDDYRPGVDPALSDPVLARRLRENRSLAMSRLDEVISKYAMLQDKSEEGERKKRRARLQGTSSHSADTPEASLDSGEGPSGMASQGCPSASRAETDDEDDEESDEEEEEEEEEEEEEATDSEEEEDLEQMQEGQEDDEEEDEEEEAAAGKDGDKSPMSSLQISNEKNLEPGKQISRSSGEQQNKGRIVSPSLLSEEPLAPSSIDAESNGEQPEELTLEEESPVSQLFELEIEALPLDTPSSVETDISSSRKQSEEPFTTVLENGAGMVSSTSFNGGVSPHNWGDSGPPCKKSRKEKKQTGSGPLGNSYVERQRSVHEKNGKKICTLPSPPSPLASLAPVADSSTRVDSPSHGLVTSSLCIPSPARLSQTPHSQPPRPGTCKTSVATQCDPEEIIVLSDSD

Row | Substance | binding [1] | binding [2] | binding [3]
1 | GST-DAXX (from UniProt Q9UER7 1-740) | binds | binds | 
2 | HA-DAXX (from UniProt Q9UER7 1-740) |  |  | binds
